# Reference: PubChem BioAssay AID1688 (National Center for Advancing Translational Sciences (NCATS), 2009)
# Hit rate of the full screen: of about 220,000 compounds, about 2,400 (1.1%) were called active. The shares of active, inactive and inconclusive entries below differ from those in the screen. Calls follow the shape of the dose curve; as a rule, active = well fitted inhibition curve with a large enough effect; inconclusive = small, poorly fitted or top-dose-only effect, or effect the other way; inactive = no such curve, though single readings can be large or run the other way. A potency beside an inconclusive call is a rough fit, not a confirmed value.
# Test: qHTS Multiplex Assay to Identify Dual Action Probes in a Cell Model of Huntington: Aggregate Formation (GFP); also: nearly all actives have a fitted effect of over 60% in size
# Settings: PC12 HttQ103-GFP aggregates, Acumen cytometry, 40 h; activity change, negative = inhibition: at 46.1 µM (top of the series) unless noted
# Method in brief: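 Compounds (qHTS titration) were added to PC12 cells expressing an ecdysone-driven HTT exon 1 Q103–GFP fusion after induction with 100 nM tebufenozide. Aggregate formation was measured as GFP objects in cell lysates.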
# % is scaled to controls: 0 for no effect and ±100 for the full control effect; potency is read from the fitted curve at half-maximal effect.
SMILES,Potency,"activity change, negative = inhibition"
CCOC(=O)N1CCN(c2cc3nccnc3cc2F)CC1,"inconclusive: 3.55 µM [inhibitor, single point]",
Cc1ccc(F)cc1NC(=O)Cc1nn(C)c(=O)c2ccccc12,active: 14.1 µM,
CCc1cccc(C)c1NC(=O)CNCc1ccccc1,"inconclusive: 28.2 µM [inhibitor, single point]",
O=c1cc(CSc2nnnn2-c2ccccc2)nc(Nc2ccc(F)cc2)[nH]1,"inconclusive: 3.55 µM [inhibitor, partial curve, poor fit]",
CC(=O)c1ccc(N2CCC(c3cc(-c4ccc(Cl)cc4Cl)n[nH]3)CC2)c([N+](=O)[O-])c1,"inconclusive: 22.4 µM [inhibitor, single point]",
CCCCCCNC(=O)c1cc(-c2ccco2)nc2ccccc12,"inconclusive: 12.6 µM [inhibitor, single point]",
CCCC(=O)NC(c1ccccc1Cl)c1c(O)ccc2ccccc12 (centres undefined),"inconclusive: 12.6 µM [inhibitor, single point]",
COc1ccccc1NC(=O)/C=C/C(N)=O,"inconclusive: 35.5 µM [inhibitor, single point]",
Nc1c(Cl)ncnc1N/N=C/c1ccccn1,"inconclusive: 1.78 µM [inhibitor, partial curve, poor fit]",
Clc1ccccc1-c1nn2c(COc3ccccc3)nnc2s1,"inconclusive: 14.1 µM [inhibitor, partial curve]",
O=[N+]([O-])c1cc(/C=N/Nc2nc3ccccc3[nH]2)c(O)cc1O,,inactive: -9.96%
CCN(CC)Cc1cc(O)c(CN(CC)CC)cc1O,"inconclusive: 11.2 µM [activator, partial curve]",
CC1=[N+](C)c2ccc3ccccc3c2C1(C)C,"inconclusive: 10 µM [inhibitor, partial curve]",
N#C/C(=C\c1ccc(F)cc1)c1nc(-c2ccco2)cs1,"inconclusive: 3.16 µM [inhibitor, single point]",
O=C(NC1=NCCS1)c1ccc2c(c1)C(=O)N(Cc1ccco1)C2=O,,inactive: 7.92%
NS(=O)(=O)c1ccc(CCNC(=O)c2ccc(C#CC3(O)CCCCC3)cc2)cc1,"inconclusive: 35.5 µM [inhibitor, single point]",
CCOC(=O)C1=C(C)NC(=O)C1CC(=O)O (centres undefined),"inconclusive: 8.91 µM [activator, partial curve, poor fit]",
O=C(O)CC(C(=O)O)N1C(=O)/C(=C/c2ccc(-c3nc4ccccc4s3)o2)SC1=S (centres undefined),,inactive: 8.97%
COc1ccc(N2CCN(C(=O)c3ccc(NS(=O)(=O)c4ccc(F)cc4)cc3)CC2)cc1,"inconclusive: 35.5 µM [inhibitor, single point]",

# Arranged by heavy-atom count (largest number first): 3 of the compounds above
SMILES,Potency,"activity change, negative = inhibition"
O=C(O)CC(C(=O)O)N1C(=O)/C(=C/c2ccc(-c3nc4ccccc4s3)o2)SC1=S (centres undefined),,inactive: 8.97%
CCc1cccc(C)c1NC(=O)CNCc1ccccc1,"inconclusive: 28.2 µM [inhibitor, single point]",
Nc1c(Cl)ncnc1N/N=C/c1ccccn1,"inconclusive: 1.78 µM [inhibitor, partial curve, poor fit]",
